The target of assay [1] is Aip5 lacking the N-terminal 300 amino acids, as CRU fusion (S. cerevisiae) (UniProt P43597). Briefly: split reporter.
The target in assay [2] is Aip5CRU (full-length Aip5 fused to C-terminal Ubiquitin-R (arginine)-Ura3) (S. cerevisiae) (UniProt P43597). Kind of assay: split reporter.
The target of assay [3] is Aip5_(Δ1000-1125) CRU (S. cerevisiae) (UniProt P43597). Briefly: split reporter.
Assay [4] addresses T1, N-terminal 300 amino acids of Aip5 as CRU fusion (S. cerevisiae) (UniProt P43597).
T1 sequence: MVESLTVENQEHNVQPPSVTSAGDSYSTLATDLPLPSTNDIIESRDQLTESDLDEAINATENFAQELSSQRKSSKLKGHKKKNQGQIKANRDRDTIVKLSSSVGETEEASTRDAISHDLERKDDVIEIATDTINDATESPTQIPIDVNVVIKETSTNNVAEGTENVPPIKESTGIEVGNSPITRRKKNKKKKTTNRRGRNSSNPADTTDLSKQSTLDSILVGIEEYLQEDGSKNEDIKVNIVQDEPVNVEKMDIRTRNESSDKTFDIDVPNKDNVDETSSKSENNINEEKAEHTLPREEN
Briefly: split reporter.

Chains of the proteins cited; added tags and fusions are not shown.
UniProt P23201: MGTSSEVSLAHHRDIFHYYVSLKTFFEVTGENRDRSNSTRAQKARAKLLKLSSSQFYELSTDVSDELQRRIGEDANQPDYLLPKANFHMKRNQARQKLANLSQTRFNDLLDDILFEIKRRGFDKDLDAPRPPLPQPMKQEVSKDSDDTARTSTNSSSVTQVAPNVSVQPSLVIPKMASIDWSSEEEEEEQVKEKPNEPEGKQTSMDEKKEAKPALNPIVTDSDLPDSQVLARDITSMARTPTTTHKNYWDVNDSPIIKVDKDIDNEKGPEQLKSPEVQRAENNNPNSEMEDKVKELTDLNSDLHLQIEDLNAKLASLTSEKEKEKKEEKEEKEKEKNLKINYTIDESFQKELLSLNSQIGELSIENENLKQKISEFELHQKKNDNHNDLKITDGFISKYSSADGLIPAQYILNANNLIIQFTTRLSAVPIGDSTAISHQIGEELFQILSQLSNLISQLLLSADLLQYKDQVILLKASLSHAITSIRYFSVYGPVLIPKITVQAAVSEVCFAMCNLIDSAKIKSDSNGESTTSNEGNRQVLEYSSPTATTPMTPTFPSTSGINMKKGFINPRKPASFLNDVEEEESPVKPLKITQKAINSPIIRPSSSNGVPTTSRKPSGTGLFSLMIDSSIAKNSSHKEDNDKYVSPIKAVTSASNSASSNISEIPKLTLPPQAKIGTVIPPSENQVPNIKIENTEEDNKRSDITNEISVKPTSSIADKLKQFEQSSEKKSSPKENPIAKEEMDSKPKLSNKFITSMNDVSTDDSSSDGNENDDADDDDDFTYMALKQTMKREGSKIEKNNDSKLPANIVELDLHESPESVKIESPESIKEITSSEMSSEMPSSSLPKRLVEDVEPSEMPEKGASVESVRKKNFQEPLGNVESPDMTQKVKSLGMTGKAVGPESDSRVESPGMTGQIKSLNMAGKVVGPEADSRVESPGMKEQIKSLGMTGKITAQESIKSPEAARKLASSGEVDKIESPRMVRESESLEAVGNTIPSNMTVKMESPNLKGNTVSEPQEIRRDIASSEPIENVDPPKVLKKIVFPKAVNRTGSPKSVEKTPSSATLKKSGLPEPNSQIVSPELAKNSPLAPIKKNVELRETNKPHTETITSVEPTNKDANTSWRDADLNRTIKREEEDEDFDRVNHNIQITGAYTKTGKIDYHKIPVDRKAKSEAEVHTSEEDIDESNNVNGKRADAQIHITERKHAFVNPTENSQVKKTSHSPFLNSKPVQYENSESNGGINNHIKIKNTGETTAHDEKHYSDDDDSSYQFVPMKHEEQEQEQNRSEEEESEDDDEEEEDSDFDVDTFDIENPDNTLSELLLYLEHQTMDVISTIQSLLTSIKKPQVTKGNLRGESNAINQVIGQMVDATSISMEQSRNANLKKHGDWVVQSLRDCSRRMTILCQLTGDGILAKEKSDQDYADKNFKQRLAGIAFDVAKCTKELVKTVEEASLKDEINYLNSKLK

Assay [5] has as its target Aip5CRU (full-length Aip5 fused to C-terminal Ubiquitin-R (arginine)-Ura3) (S. cerevisiae) (UniProt P43597). Kind of assay: split reporter. This is another data set of the same source.
Assay [6] addresses T2, GST-Bud6_(1-141) (S. cerevisiae) (UniProt P41697).
T2 sequence: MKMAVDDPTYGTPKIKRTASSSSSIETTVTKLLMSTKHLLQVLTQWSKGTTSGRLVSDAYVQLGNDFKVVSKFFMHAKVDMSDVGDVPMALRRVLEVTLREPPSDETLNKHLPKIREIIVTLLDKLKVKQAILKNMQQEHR
Kind of assay: pull-down.

For assay [7], the target named is T3, GST-Bud6_(1-364) (S. cerevisiae) (UniProt P41697).
T3 sequence: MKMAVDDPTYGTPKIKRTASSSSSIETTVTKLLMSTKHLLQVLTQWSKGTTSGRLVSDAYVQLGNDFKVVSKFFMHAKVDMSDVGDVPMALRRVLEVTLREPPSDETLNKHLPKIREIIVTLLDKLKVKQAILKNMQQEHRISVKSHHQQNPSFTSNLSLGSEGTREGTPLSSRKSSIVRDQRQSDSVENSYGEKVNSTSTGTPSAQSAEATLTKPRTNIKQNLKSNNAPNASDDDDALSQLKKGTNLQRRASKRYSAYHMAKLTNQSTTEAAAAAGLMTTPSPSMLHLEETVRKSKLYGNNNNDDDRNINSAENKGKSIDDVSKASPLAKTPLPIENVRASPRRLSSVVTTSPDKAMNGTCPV
Briefly: pull-down.

Assay [8] has as its target Aip5CRU (full-length Aip5 fused to C-terminal Ubiquitin-R (arginine)-Ura3) (S. cerevisiae) (UniProt P43597). Kind of assay: split reporter. This is another data set of the same source.
Assay [9] deals with Aip5_(Δ1000-1125) CRU (S. cerevisiae) (UniProt P43597). Kind of assay: split reporter. This is another data set of the same source.
In assay [10] the target is T4, Aip5_(1000-1131) as CRU fusion (S. cerevisiae) (UniProt P43597).
T4 sequence: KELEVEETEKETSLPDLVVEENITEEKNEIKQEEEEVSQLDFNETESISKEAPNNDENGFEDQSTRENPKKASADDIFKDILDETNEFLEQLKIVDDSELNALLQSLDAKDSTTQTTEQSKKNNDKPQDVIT
Kind of assay: split reporter.

In assay [11] the target is Aip5_(1000-end)CRU (S. cerevisiae) (UniProt P43597). Briefly: split reporter.

Read-outs that look alike come from different tables or passages of the source. Results are given in words; binding and its absence hold for the method and conditions named. Binding seen in cells or lysates may run through a third protein. Some entries that bind do so weakly or less than the wild type. For part of these data: Tags and fused reporters may be left off the sequences shown.

Turning to Nub-Spa2 (from UniProt P23201 1-1466), the binding result in assay [1] is “no binding”; in assay [2] it was “binds”; in assay [3], “binds”; in assay [4] it was “binds”; in assay [5], “binds”.

In the case of “His6-Aip5_(1000-end) (from UniProt P43597 1000-1233) (domain or fragment)”, the binding entry in assay [6] and in assay [7] was “binds” each time.

B1: Nub-Bud6 (protein, UniProt P41697 1-788)
chain: MKMAVDDPTYGTPKIKRTASSSSSIETTVTKLLMSTKHLLQVLTQWSKGTTSGRLVSDAYVQLGNDFKVVSKFFMHAKVDMSDVGDVPMALRRVLEVTLREPPSDETLNKHLPKIREIIVTLLDKLKVKQAILKNMQQEHRISVKSHHQQNPSFTSNLSLGSEGTREGTPLSSRKSSIVRDQRQSDSVENSYGEKVNSTSTGTPSAQSAEATLTKPRTNIKQNLKSNNAPNASDDDDALSQLKKGTNLQRRASKRYSAYHMAKLTNQSTTEAAAAAGLMTTPSPSMLHLEETVRKSKLYGNNNNDDDRNINSAENKGKSIDDVSKASPLAKTPLPIENVRASPRRLSSVVTTSPDKAMNGTCPVFLRIGDKTKKCHVQLPTTKNALRLLFIERFAYSPGANSFPDIYIMDPQYGVFYELEELNLLDIKEGFVIELKLEENPNNTIKEFIDTVKMEISNSQNDIIRHLKEMSFGSAISGKQTEVLPQPGLEANKHDLVGQNKKDDDKTIKDIQYELGKIKQVHNINRSNINETIFNILRKVDNFKSLSFSAKNSSNRMYMEKSQTELGDLSDTLLSKVDDLQDVIEIMRKDVAERRSQPAKKKLETVSKDLENAQADVLKLQEFIDTEKPHWKKTWEAELDKVCEEQQFLTLQEELILDLKEDLGKALETFDLIKLCCEEQEKNPSRSKSNPILPIMRPGTFNQVREQVMVAVQSLNPDHDSRVEAIDKAEKMWEMERKLKASNEFDDELENFVGNSNLKKSGGFEEVERIRKQKDEANLRAYFGPGFT
Consider B1, for which the binding result is recorded as “binds” in assay [5], “binds” in [8], “no binding” in assay [9] and “binds” in [10].

B2: Nub-Bud6_(1-141) (domain or fragment, UniProt P41697 1-141)
chain: MKMAVDDPTYGTPKIKRTASSSSSIETTVTKLLMSTKHLLQVLTQWSKGTTSGRLVSDAYVQLGNDFKVVSKFFMHAKVDMSDVGDVPMALRRVLEVTLREPPSDETLNKHLPKIREIIVTLLDKLKVKQAILKNMQQEHR
Take B2: the binding result in [11] was “binds”.

(Values after doi:10.1101/610980.)
